These are yes or no findings as the source states them, for the method shown. For some of these results: In cells and extracts the contact can be indirect. Some binding calls cover weakened binding; strength is not graded here.
What was measured:
[1] = biological target: SORLA with C-terminal fusion of the C-terminal fragment of venus fluorescent protein (human) (UniProt Q92673); assay: bimolecular fluorescence complementation (split venus), HEK293T cells
[2] = biological target: SORLA with C-terminal fusion of the C-terminal fragment of venus fluorescent protein (human) (UniProt Q92673); assay: GFP-trap immunoprecipitation of reconstituted venus, WB for SORLA
[3] = biological target: full-length SORLA with C-terminal GFP-tag (human) (UniProt Q92673); assay: in situ proximity ligation assay, co-transfected HEK293 cells
[4] = biological target: full-length SORLA with C-terminal GFP-tag (human) (UniProt Q92673); assay: in situ proximity ligation assay, co-transfected HEK293 cells (figure legend)

Sequences of proteins named here, by UniProt entry; tags and fusion partners are left off. Residues count along the entry.
UniProt Q92673, residues 82-2214: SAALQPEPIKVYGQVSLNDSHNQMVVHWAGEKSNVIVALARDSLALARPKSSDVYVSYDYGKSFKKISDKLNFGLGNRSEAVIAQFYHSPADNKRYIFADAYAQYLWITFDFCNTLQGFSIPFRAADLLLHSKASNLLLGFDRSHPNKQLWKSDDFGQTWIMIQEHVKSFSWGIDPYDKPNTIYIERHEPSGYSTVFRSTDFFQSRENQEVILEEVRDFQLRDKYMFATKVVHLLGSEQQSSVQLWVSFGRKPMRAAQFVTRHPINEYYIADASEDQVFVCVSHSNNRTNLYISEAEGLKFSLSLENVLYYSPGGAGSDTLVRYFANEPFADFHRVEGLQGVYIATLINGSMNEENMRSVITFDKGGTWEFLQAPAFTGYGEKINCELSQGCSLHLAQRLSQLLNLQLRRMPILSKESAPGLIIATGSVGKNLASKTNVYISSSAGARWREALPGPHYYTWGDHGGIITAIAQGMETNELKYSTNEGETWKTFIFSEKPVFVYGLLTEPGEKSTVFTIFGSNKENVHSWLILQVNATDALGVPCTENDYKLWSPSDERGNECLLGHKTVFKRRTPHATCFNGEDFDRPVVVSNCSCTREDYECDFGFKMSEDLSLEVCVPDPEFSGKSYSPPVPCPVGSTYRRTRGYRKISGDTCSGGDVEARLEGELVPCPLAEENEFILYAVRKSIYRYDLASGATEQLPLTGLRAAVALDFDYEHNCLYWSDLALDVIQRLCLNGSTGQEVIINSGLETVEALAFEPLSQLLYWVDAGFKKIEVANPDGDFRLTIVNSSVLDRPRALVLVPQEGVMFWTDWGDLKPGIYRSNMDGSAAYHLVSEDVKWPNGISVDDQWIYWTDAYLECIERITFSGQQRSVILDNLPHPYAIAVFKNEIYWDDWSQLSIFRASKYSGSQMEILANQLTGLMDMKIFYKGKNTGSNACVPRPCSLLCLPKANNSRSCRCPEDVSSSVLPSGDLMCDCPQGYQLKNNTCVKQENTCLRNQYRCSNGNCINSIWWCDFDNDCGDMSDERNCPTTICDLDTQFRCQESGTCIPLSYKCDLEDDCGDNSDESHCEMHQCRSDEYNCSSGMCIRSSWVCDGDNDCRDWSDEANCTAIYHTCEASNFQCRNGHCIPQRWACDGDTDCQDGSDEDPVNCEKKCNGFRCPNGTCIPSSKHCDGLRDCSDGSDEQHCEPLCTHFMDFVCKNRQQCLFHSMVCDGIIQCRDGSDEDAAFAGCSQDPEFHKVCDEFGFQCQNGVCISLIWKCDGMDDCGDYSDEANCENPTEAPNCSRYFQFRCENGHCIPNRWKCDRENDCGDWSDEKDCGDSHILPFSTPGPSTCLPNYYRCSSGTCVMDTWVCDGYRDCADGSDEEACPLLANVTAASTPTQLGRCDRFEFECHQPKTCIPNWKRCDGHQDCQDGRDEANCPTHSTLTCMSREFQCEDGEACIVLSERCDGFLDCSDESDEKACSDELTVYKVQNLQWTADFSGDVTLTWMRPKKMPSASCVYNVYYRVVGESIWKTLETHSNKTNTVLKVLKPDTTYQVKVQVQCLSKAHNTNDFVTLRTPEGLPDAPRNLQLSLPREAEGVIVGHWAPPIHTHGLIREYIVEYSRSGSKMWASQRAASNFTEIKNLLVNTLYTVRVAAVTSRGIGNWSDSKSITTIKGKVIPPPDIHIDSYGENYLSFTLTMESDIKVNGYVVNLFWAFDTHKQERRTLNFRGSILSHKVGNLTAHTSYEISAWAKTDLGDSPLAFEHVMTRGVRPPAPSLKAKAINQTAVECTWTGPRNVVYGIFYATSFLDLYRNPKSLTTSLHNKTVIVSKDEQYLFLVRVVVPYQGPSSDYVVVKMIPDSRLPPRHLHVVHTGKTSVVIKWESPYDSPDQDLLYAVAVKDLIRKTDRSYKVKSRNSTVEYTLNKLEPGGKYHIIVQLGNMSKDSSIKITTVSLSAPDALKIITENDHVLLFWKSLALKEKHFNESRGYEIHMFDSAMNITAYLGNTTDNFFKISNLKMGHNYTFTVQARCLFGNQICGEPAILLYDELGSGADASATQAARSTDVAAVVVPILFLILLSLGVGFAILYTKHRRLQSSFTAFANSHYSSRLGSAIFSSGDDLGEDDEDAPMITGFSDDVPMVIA

Row | Substance | binding [1] | binding [2] | binding [3] | binding [4]
1 | SORLA with C-terminal fusion of the N-terminal fragment of venus fluorescent protein (from UniProt Q92673 82-2214) (receptor) | binds | binds | – | –
2 | full-length SORLA with C-terminal FLAG-tag (from UniProt Q92673 82-2214) (receptor) | – | – | binds | binds

Reference: patent US20240301030A1
